Results are given in words; binding and its absence hold for the method and conditions named. In cells and extracts the contact can be indirect. A result given as binding can be weak or reduced; the word gives no strength.
Target: recombinant PD-L1
Test: streptavidin pull-down of biotin-peptide with recombinant PD-L1, immunoblot

Row | binding | Binder
1 | binds | CVRARTR (FITC, biotin or Flamma-675 conjugated to the N-terminal, according to the assay) [PD-L1Pep-2]
2 | binds | CLQKTPKQC (FITC, biotin or Flamma-675 conjugated to the N-terminal, according to the assay) [PD-L1Pep-1]

Source: EP3725799B1, “PEPTIDE BINDING TO PL-L1 AND USE THEREOF” (Kyungpook National University Industry-Academic Cooperation …, priority 2017, dated 2025)
